From patent US20250283871A1, “COMPOSITIONS AND METHODS FOR MODULATING THE INTERACTION BETWEEN SS18-SSX FUSION ONCOPROTEIN AND NUCLEOSOMES” (Dana-Farber Cancer Institute, Inc., priority 2020, published 2025)

B1: KRR1 (protein, UniProt Q13601 2-381, looked up)
KRR1 small subunit processome …: ASPSLERPEKGAGKSEFRNQKPKPENQDESELLTVPDGWKEPAFSKEDNPRGLLEESSFATLFPKYREAYLKECWPLVQKALNEHHVNATLDLIEGSMTVCTTKKTFDPYIIIRARDLIKLLARSVSFEQAVRILQDDVACDIIKIGSLVRNKERFVKRRQRLIGPKGSTLKALELLTNCYIMVQGNTVSAIGPFSGLKEVRKVVLDTMKNIHPIYNIKSLMIKRELAKDSELRSQSWERFLPQFKHKNVNKRKEPKKKTVKKEYTPFPPPQPESQIDKELASGEYFLKANQKKRQKMEAIKAKQAEAISKRQEERNKAFIPPKEKPIVKPKEASTETKIDVASIKEKVKKAKNKKLGALTAEEIALKMEADEKKKKKKK
B2: DDX17 (protein, UniProt Q92841 1-729, looked up)
Probable ATP-dependent RNA …: MPTGFVAPILCVLLPSPTREAATVASATGDSASERESAAPAAAPTAEAPPPSVVTRPEPQALPSPAIRAPLPDLYPFGTMRGGGFGDRDRDRDRGGFGARGGGGLPPKKFGNPGERLRKKKWDLSELPKFEKNFYVEHPEVARLTPYEVDELRRKKEITVRGGDVCPKPVFAFHHANFPQYVMDVLMDQHFTEPTPIQCQGFPLALSGRDMVGIAQTGSGKTLAYLLPAIVHINHQPYLERGDGPICLVLAPTRELAQQVQQVADDYGKCSRLKSTCIYGGAPKGPQIRDLERGVEICIATPGRLIDFLESGKTNLRRCTYLVLDEADRMLDMGFEPQIRKIVDQIRPDRQTLMWSATWPKEVRQLAEDFLRDYTQINVGNLELSANHNILQIVDVCMESEKDHKLIQLMEEIMAEKENKTIIFVETKRRCDDLTRRMRRDGWPAMCIHGDKSQPERDWVLNEFRSGKAPILIATDVASRGLDVEDVKFVINYDYPNSSEDYVHRIGRTARSTNKGTAYTFFTPGNLKQARELIKVLEEANQAINPKLMQLVDHRGGGGGGGGRSRYRTTSSANNPNLMYQDECDRRLRGVKDGGRRDSASYRDRSETDRAGYANGSGYGSPNSAFGAQAGQYTYGQGTYGAAAYGTSSYTAQEYGAGTYGASSTTSTGRSSQSSSQQFSGIGRSGQQPQPLMSQQFAQPPGATNMIGYMGQTAYQYPPPPPPPPPSRK
B3: LEMD2 (protein, UniProt Q8NC56 2-503, looked up)
LEM domain-containing protein …: AGLSDLELRRELQALGFQPGPITDTTRDVYRNKLRRLRGEARLRDEERLREEARPRGEERLREEARLREDAPLRARPAAASPRAEPWLSQPASGSAYATPGAYGDIRPSAASWVGSRGLAYPARPAQLRRRASVRGSSEEDEDARTPDRATQGPGLAARRWWAASPAPARLPSSLLGPDPRPGLRATRAGPAGAARARPEVGRRLERWLSRLLLWASLGLLLVFLGILWVKMGKPSAPQEAEDNMKLLPVDCERKTDEFCQAKQKAALLELLHELYNFLAIQAGNFECGNPENLKSKCIPVMEAQEYIANVTSSSSAKFEAALTWILSSNKDVGIWLKGEDQSELVTTVDKVVCLESAHPRMGVGCRLSRALLTAVTNVLIFFWCLAFLWGLLILLKYRWRKLEEEEQAMYEMVKKIIDVVQDHYVDWEQDMERYPYVGILHVRDSLIPPQSRRRMKRVWDRAVEFLASNESRIQTESHRVAGEDMLVWRWTKPSSFSDSER
B4: CENPV (protein, UniProt Q7Z7K6 1-275, looked up)
Centromere protein V: MRRSRSSAAAKLRGQKRSGASGASAAPAASAAAALAPSATRTRRSASQAGSKSQAVEKPPSEKPRLRRSSPRAQEEGPGEPPPPELALLPPPPPPPPTPATPTSSASNLDLGEQRERWETFQKRQKLTSEGAAKLLLDTFEYQGLVKHTGGCHCGAVRFEVWASADLHIFDCNCSICKKKQNRHFIVPASRFKLLKGAEHITTYTFNTHKAQHTFCKRCGVQSFYTPRSNPGGFGIAPHCLDEGTVRSMVTEEFNGSDWEKAMKEHKTIKNMSKE
B5: NUP107 (protein, UniProt P57740 1-925, looked up)
Nuclear pore complex protein …: MDRSGFGEISSPVIREAEVTRTARKQSAQKRVLLQASQDENFGNTTPRNQVIPRTPSSFRQPFTPTSRSLLRQPDISCILGTGGKSPRLTQSSGFFGNLSMVTNLDDSNWAAAFSSQRSGLFTNTEPHSITEDVTISAVMLREDDPGEAASMSMFSDFLQSFLKHSSSTVFDLVEEYENICGSQVNILSKIVSRATPGLQKFSKTASMLWLLQQEMVTWRLLASLYRDRIQSALEEESVFAVTAVNASEKTVVEALFQRDSLVRQSQLVVDWLESIAKDEIGEFSDNIEFYAKSVYWENTLHTLKQRQLTSYVGSVRPLVTELDPDAPIRQKMPLDDLDREDEVRLLKYLFTLIRAGMTEEAQRLCKRCGQAWRAATLEGWKLYHDPNVNGGTELEPVEGNPYRRIWKISCWRMAEDELFNRYERAIYAALSGNLKQLLPVCDTWEDTVWAYFRVMVDSLVEQEIQTSVATLDETEELPREYLGANWTLEKVFEELQATDKKRVLEENQEHYHIVQKFLILGDIDGLMDEFSKWLSKSRNNLPGHLLRFMTHLILFFRTLGLQTKEEVSIEVLKTYIQLLIREKHTNLIAFYTCHLPQDLAVAQYALFLESVTEFEQRHHCLELAKEADLDVATITKTVVENIRKKDNGEFSHHDLAPALDTGTTEEDRLKIDVIDWLVFDPAQRAEALKQGNAIMRKFLASKKHEAAKEVFVKIPQDSIAEIYNQCEEQGMESPLPAEDDNAIREHLCIRAYLEAHETFNEWFKHMNSVPQKPALIPQPTFTEKVAHEHKEKKYEMDFGIWKGHLDALTADVKEKMYNVLLFVDGGWMVDVREDAKEDHERTHQMVLLRKLCLPMLCFLLHTILHSTGQYQECLQLADMVSSERHKLYLVFSKEELRKLLQKLRESSLMLLDQGLDPLGYEIQL
B6: CEBPZ (protein, UniProt Q03701 1-1054, looked up)
CCAAT/enhancer-binding …: MAAVKEPLEFHAKRPWRPEEAVEDPDEEDEDNTSEAENGFSLEEVLRLGGTKQDYLMLATLDENEEVIDGGKKGAIDDLQQGELEAFIQNLNLAKYTKASLVEEDEPAEKENSSKKEVKIPKINNKNTAESQRTSVNKVKNKNRPEPHSDENGSTTPKVKKDKQNIFEFFERQTLLLRPGGKWYDLEYSNEYSLKPQPQDVVSKYKTLAQKLYQHEINLFKSKTNSQKGASSTWMKAIVSSGTLGDRMAAMILLIQDDAVHTLQFVETLVNLVKKKGSKQQCLMALDTFKELLITDLLPDNRKLRIFSQRPFDKLEQLSSGNKDSRDRRLILWYFEHQLKHLVAEFVQVLETLSHDTLVTTKTRALTVAHELLCNKPEEEKALLVQVVNKLGDPQNRIATKASHLLETLLCKHPNMKGVVSGEVERLLFRSNISSKAQYYAICFLNQMALSHEESELANKLITVYFCFFRTCVKKKDVESKMLSALLTGVNRAYPYSQTGDDKVREQIDTLFKVLHIVNFNTSVQALMLLFQVMNSQQTISDRYYTALYRKMLDPGLMTCSKQAMFLNLVYKSLKADIVLRRVKAFVKRLLQVTCQQMPPFICGALYLVSEILKAKPGLRSQLDDHPESDDEENFIDANDDEDMEKFTDADKETEIVKKLETEETVPETDVETKKPEVASWVHFDNLKGGKQLNKYDPFSRNPLFCGAENTSLWELKKLSVHFHPSVALFAKTILQGNYIQYSGDPLQDFTLMRFLDRFVYRNPKPHKGKENTDSVVMQPKRKHFIKDIRHLPVNSKEFLAKEESQIPVDEVFFHRYYKKVAVKEKQKRDADEESIEDVDDEEFEELIDTFEDDNCFSSGKDDMDFAGNVKKRTKGAKDNTLDEDSEGSDDELGNLDDDEVSLGSMDDEEFAEVDEDGGTFMDVLDDESESVPELEVHSKVSTKKSKRKGTDDFDFAGSFQGPRKKKRNLNDSSLFVSAEEFGHLLDENMGSKFDNIGMNAMANKDNASLKQLRWEAERDDWLHNRDAKSIIKKKKHFKKKRIKTTQKTKKQRK
B7: MTA1 (protein, UniProt Q13330 1-715, looked up)
Metastasis-associated protein …: MAANMYRVGDYVYFENSSSNPYLIRRIEELNKTANGNVEAKVVCFYRRRDISSTLIALADKHATLSVCYKAGPGADNGEEGEIEEEMENPEMVDLPEKLKHQLRHRELFLSRQLESLPATHIRGKCSVTLLNETESLKSYLEREDFFFYSLVYDPQQKTLLADKGEIRVGNRYQADITDLLKEGEEDGRDQSRLETQVWEAHNPLTDKQIDQFLVVARSVGTFARALDCSSSVRQPSLHMSAAAASRDITLFHAMDTLHKNIYDISKAISALVPQGGPVLCRDEMEEWSASEANLFEEALEKYGKDFTDIQQDFLPWKSLTSIIEYYYMWKTTDRYVQQKRLKAAEAESKLKQVYIPNYNKPNPNQISVNNVKAGVVNGTGAPGQSPGAGRACESCYTTQSYQWYSWGPPNMQCRLCASCWTYWKKYGGLKMPTRLDGERPGPNRSNMSPHGLPARSSGSPKFAMKTRQAFYLHTTKLTRIARRLCREILRPWHAARHPYLPINSAAIKAECTARLPEASQSPLVLKQAVRKPLEAVLRYLETHPRPPKPDPVKSVSSVLSSLTPAKVAPVINNGSPTILGKRSYEQHNGVDGNMKKRLLMPSRGLANHGQARHMGPSRNLLLNGKSYPTKVRLIRGGSLPPVKRRRMNWIDAPDDVFYMATEETRKIRKLLSSSETKRAARRPYKPIALRQSQALPPRPPPPAPVNDEPIVIED

Tested on: BAF complex subunits and histone proteins
Test: Mass spectrometry proteomics of purified HA-SS18 WT and HA-SS18-SSX1 complexes (Tables 5A-5E)
Set-up: species or system human
Conditions: HA-SS18SSX1_CHR_peptides: protein identified in the HA-SS18-SSX1 purification from solubilized chromatin (CHR), HEK-293T

| Molecule | Total (total peptides) | Unique (unique peptides) |
| --- | --- | --- |
| B1 | 10 | 9 |
| B2 | 10 | 9 |
| B3 | 10 | 8 |
| B4 | 10 | 8 |
| B5 | 9 | 9 |
| B6 | 9 | 9 |
| B7 | 9 | 9 |

Same assay, conditions: HA-SS18SSX1_CHR_peptides; total peptides of the identified protein

| Molecule | Total |
| --- | --- |
| B4 | 1 |

Same assay, conditions: HA-SS18SSX1_CHR_peptides; unique peptides of the identified protein

| Molecule | Unique |
| --- | --- |
| B4 | 1 |

Same assay, conditions: HA-SS18SSX1_NE_peptides: protein co-purified with HA-SS18-SSX1 BAF complexes from soluble nuclear extract (NE), HEK-293T cells

| Molecule | Total (peptides) | Unique (peptides) |
| --- | --- | --- |
| B3 | 2 | 2 |

Same assay, conditions: HA-SS18SSX1 purification, NE (soluble nuclear extract) fraction, HEK-293T; peptides per identified protein

| Molecule | Total (total peptides) | Unique (unique peptides) |
| --- | --- | --- |
| B1 | 4 | 4 |
| B2 | 8 | 8 |
| B6 | 4 | 4 |

Same assay, conditions: HA-SS18WT_CHR_peptides: HA-SS18 WT purification from nuclease-treated solubilized chromatin (CHR), HEK-293T; label = protein identified

| Molecule | Total (peptides) | Unique (peptides) |
| --- | --- | --- |
| B1 | 14 | 11 |
| B2 | 7 | 7 |
| B4 | 6 | 5 |
| B5 | 5 | 5 |
| B6 | 5 | 5 |
| B7 | 3 | 3 |

Same assay, conditions: HA-SS18WT_CHR_peptides: protein identified in HA-SS18 WT BAF complex purification from nuclease-treated solubilized chromatin (CHR), HEK-293T

| Molecule | Total (total peptides) | Unique (unique peptides) |
| --- | --- | --- |
| B3 | 2 | 2 |
| B4 | 2 | 1 |

Same assay, conditions: HA-SS18WT_NE_peptides: HA-SS18 WT complexes purified from nuclear extract (NE), HEK-293T; label = protein identified (Gene Symbol)

| Molecule | Total (peptides) | Unique (peptides) |
| --- | --- | --- |
| B2 | 7 | 6 |
| B6 | 5 | 5 |

Same assay, conditions: HA-SS18WT_NE_peptides: proteins co-purified with HA-SS18 WT from nuclear extract (NE), HEK-293T

| Molecule | Total (peptides) | Unique (peptides) |
| --- | --- | --- |
| B1 | 1 | 1 |
| B4 | 1 | 1 |
| B5 | 1 | 1 |
